The values that follow come from PMC4257004.

The chains behind the UniProt entries cited, without tags or fusion partners.
UniProt Q9VDJ9: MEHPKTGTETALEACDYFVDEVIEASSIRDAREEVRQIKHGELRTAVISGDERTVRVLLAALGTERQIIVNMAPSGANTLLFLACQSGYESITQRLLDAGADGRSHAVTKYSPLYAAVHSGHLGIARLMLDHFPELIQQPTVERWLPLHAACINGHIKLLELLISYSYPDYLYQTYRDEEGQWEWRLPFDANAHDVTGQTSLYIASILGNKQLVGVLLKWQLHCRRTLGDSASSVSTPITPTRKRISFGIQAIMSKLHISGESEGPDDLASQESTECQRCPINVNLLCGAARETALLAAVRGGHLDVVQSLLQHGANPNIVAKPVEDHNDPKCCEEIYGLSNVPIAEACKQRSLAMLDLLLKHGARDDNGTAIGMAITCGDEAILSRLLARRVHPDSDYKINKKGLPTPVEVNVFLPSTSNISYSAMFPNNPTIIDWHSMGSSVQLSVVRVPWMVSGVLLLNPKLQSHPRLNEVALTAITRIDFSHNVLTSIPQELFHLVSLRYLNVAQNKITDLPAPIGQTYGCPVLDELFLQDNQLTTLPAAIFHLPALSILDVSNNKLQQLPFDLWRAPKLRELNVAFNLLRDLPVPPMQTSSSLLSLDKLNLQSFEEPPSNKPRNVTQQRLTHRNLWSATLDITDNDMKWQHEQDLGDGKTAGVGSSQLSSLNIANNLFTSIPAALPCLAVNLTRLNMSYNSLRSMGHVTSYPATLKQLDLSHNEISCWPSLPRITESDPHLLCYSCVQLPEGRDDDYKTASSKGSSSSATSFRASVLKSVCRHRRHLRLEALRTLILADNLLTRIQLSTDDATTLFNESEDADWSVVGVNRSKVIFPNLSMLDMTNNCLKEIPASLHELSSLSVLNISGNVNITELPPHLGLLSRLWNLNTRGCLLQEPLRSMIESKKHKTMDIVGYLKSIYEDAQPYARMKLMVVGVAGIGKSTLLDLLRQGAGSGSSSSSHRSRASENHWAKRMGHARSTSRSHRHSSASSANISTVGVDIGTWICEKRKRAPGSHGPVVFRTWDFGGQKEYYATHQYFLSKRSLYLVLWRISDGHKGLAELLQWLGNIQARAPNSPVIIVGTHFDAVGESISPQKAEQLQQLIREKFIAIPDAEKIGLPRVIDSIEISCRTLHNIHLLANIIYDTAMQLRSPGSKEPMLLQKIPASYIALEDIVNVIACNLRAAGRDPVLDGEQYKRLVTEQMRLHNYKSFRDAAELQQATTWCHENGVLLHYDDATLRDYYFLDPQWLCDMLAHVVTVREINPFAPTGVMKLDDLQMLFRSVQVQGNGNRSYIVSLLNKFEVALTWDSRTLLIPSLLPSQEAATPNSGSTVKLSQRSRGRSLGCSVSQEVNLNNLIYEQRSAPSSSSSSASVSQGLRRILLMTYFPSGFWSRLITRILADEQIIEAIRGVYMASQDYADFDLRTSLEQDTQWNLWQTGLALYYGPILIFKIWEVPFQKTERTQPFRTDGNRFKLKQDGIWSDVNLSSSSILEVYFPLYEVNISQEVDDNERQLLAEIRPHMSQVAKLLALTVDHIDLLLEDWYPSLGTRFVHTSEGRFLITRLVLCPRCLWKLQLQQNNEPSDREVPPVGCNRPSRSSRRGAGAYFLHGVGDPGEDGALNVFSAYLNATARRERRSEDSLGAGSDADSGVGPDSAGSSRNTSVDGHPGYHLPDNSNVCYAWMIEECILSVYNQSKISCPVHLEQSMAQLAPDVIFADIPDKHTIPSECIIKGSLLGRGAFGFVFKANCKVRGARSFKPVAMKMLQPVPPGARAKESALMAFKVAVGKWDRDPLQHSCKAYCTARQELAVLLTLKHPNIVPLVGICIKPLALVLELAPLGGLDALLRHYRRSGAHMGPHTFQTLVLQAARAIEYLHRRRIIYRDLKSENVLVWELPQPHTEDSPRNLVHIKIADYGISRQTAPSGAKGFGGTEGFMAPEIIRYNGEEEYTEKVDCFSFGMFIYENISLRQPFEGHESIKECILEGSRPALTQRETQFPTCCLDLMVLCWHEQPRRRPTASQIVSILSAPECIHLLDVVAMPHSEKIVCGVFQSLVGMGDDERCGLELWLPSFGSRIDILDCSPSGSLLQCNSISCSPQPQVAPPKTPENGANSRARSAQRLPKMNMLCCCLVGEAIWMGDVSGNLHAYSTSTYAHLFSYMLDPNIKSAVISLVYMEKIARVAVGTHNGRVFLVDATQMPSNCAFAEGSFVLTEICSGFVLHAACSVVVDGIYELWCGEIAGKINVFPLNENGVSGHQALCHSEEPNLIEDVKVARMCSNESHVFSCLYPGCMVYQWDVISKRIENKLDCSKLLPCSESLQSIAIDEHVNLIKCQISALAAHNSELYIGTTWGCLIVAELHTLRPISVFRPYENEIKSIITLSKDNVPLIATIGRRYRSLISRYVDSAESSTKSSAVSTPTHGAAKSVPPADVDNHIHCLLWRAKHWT

These are yes or no findings as the source states them, for the method shown. Binding seen in cells or lysates may run through a third protein. Binding calls can cover weak binding; strength is not graded here.

The target of this assay is Rab9-YFP (Drosophila) (UniProt Q9VIW6). The assay can be described thus: co-IP; lysates of transiently transfected Drosophila S2 cells in RIPA buffer with protease inhibitors; Dynabeads with rabbit anti-GFP or mouse anti-Myc; western blot with anti-Myc and anti-GFP. A general note: A western blot detects proteins with antibodies after separation by electrophoresis.

Consider “Drosophila Lrrk, 9myc-tagged (pMT-lrrk-9myc) (from UniProt Q9VDJ9 1-2445)”, for which the binding entry is given as “binds”.
